Measured values from patent US20020160486.
Numbering of substitutions follows the chain as printed. The exact form of at least one protein or probe is not confirmed. Tags and fusion partners may be left off the protein sequences shown.

Key:
[1] = target: T1, Human RNase H1 wild-type (Homo sapiens) (UniProt O60930); test: enzyme reaction in vitro; settings: initial rate V0; 1 mM MgCl2, 37 C; purified recombinant protein; label: 5'-32P on RNA strand; DNA:RNA hybrid
T1 sequence (looked up, limits assumed): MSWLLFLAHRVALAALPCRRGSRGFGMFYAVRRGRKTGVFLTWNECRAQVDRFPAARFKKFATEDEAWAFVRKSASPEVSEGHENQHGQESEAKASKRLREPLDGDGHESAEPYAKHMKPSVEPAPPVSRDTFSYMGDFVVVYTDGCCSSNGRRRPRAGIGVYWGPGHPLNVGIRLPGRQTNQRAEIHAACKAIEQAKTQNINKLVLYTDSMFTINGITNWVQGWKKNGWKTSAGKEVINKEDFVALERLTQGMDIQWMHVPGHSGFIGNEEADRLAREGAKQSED

[2] = target: T2, RNase H1[K226,227A] K226A,K227A (Homo sapiens) (UniProt O60930); test: enzyme reaction in vitro; settings: initial rate V0; 1 mM MgCl2, 37 C; purified recombinant protein; protein details: His-tag; label: 5'-32P on RNA strand; DNA:RNA hybrid
T2 sequence (looked up, limits assumed): T1 sequence (looked up, limits assumed) with K226A, K227A

[3] = target: T3, RNase H1[deltaI-II] del 1-135 (Homo sapiens) (UniProt O60930); test: enzyme reaction in vitro; settings: initial rate V0; 1 mM MgCl2, 37 C; broader cleavage pattern, 7-13 nt from RNA 5' end; purified recombinant protein; protein details: His-tag; label: 5'-32P on RNA strand; DNA:RNA hybrid
T3 sequence (looked up, limits assumed): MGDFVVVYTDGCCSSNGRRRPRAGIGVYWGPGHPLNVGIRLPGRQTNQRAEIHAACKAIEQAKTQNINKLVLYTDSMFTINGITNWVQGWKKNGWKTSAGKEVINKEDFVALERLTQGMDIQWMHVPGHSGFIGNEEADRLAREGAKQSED

[4] = target: T4, RNase H1[deltaII] del 74-135 (Homo sapiens) (UniProt O60930); test: enzyme reaction in vitro; settings: initial rate V0; 1 mM MgCl2, 37 C; purified recombinant protein; protein details: His-tag; label: 5'-32P on RNA strand; DNA:RNA hybrid
T4 sequence (looked up, limits assumed): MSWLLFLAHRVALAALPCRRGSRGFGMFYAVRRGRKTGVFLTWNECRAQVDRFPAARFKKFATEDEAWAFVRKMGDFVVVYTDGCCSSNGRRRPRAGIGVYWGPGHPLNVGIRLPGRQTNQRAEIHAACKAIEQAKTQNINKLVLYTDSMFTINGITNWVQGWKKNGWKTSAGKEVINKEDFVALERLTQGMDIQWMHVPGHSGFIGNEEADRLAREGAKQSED

[5] = target: T5, RNase H1[deltaI] del 1-73 (Homo sapiens) (UniProt O60930); test: enzyme reaction in vitro; settings: initial rate V0; 1 mM MgCl2, 37 C; broader cleavage pattern, 7-13 nt from RNA 5' end; purified recombinant protein; protein details: His-tag; label: 5'-32P on RNA strand; DNA:RNA hybrid
T5 sequence (looked up, limits assumed): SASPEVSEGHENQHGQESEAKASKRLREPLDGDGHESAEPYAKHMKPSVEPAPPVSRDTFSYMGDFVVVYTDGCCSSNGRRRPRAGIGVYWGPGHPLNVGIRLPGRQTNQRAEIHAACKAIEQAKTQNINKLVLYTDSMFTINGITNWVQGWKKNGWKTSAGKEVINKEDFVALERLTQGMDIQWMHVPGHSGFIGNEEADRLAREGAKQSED

[6] = target: T6, RNase H1[D145N] (Homo sapiens) (UniProt O60930); test: competition with a labelled probe; settings: inhibits wild-type: wild-type V0 6-fold faster alone than with mutant at 10-fold excess; purified recombinant protein; protein details: His-tag; label: 5'-32P on RNA strand; DNA:RNA hybrid
T6 sequence (looked up, limits assumed): T1 sequence (looked up, limits assumed) with D145N

[7] = target: T7, RNase H1[K226,227,231,236A] K226A,K227A,K231A,K236A (Homo sapiens) (UniProt O60930); test: competition with a labelled probe; settings: wild-type V0 about 60% slower in presence of mutant at 10-fold excess; purified recombinant protein; protein details: His-tag; label: 5'-32P on RNA strand; DNA:RNA hybrid
T7 sequence (looked up, limits assumed): T1 sequence (looked up, limits assumed) with K226A, K227A, K231A, K236A

[8] = target: T4, RNase H1[deltaII] del 74-135 (Homo sapiens); test: competition with a labelled probe; settings: wild-type V0 about 50% slower in presence of mutant at 10-fold excess; purified recombinant protein; protein details: His-tag; label: 5'-32P on RNA strand; DNA:RNA hybrid

GGGCGCCGUCGGUGUGG [17-mer RNA/DNA heteroduplex]
activity on this sequence [1]: active
activity on this sequence [2]: active
activity on this sequence [3]: active
activity on this sequence [4]: active
activity on this sequence [5]: active
binding result [6]: binds
binding result [7]: binds
binding result [8]: binds
